The record followed here is patent US20250145680A1 (REMD BIOTHERAPEUTICS, published 2025).

Sequences of proteins named here, by UniProt entry; tags and fusion partners are left off. Residues count along the entry.
UniProt Q9NZQ7, residues 19-290: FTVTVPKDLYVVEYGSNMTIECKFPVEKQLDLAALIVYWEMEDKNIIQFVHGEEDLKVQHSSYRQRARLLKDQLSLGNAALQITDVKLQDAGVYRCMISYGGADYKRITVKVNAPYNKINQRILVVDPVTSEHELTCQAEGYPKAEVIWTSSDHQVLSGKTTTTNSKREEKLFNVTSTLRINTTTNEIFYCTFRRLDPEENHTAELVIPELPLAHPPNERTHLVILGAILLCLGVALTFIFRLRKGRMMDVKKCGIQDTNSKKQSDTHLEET

The assay deals with PD-L1 (human) (UniProt Q9NZQ7). The experiment in a line: flow cytometry on OVCAR-3 cells, REMD290 as staining antibody.

No constants are given. Whether binding was seen depends on the method and setting. Some entries that bind do so weakly or less than the wild type.

B1: anti-PD-L1 mAb (REMD290) (antibody, human IgG4 S228P, kappa, V domains shown)
VH: QMQLVQSGAEVKKTGSSVKVSCKASGYTFTSYSINWVRQAPGKGLEWVAYFYVGNGYTDYNEKFKGRVTMTRDTSTSTVYMELSSLRSEDTAVYYCARGGLPYYFDYWGQGTLVTVSS
VL: DIQMTQSPSSVSASVGDRVTITCKTSQDVNTAVAWYQQKPGQAPRLLIYWASTRHTGVPDRFSGSGSGTDFTLTISSLQAEDVAVYYCQQHYNTPLTFGGGTKLEIKR
Regarding B1, the binding entry is “binds”.
